Source: PubChem BioAssay AID720504 (National Center for Advancing Translational Sciences (NCATS), 2013)
In all, about 360,000 compounds went through this assay and about 10,000 (2.8%) were called active. Inconclusive results, whose numbers are uncertain, are shown with a selection of clear calls. Calls come from the whole dose curve; as a rule, active = well fitted inhibition curve with a large enough effect; inconclusive = small, poorly fitted or top-dose-only effect; inactive = flat fitted curve, though single readings scatter. A potency beside an inconclusive call is a rough fit, not a confirmed value.

Chains of the proteins cited; added tags and fusions are not shown.
UniProt P53350, whole entry, looked up: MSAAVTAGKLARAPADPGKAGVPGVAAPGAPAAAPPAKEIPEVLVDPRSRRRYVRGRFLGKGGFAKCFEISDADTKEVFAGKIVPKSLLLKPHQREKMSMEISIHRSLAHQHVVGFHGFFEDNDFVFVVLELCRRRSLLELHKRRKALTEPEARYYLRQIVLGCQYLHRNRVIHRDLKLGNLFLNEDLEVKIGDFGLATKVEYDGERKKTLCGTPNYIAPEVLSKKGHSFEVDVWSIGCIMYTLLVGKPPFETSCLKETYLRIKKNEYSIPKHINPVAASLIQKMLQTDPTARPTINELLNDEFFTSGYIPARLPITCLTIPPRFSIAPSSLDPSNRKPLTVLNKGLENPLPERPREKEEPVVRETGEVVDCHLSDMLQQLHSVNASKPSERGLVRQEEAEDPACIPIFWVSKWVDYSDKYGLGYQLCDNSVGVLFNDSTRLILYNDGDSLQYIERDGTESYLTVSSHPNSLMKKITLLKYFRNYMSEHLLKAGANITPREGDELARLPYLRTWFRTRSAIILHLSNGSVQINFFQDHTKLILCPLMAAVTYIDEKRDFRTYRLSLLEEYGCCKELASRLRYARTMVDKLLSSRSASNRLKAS

The molecules below were run against Serine/threonine-protein kinase PLK1 (Homo sapiens) (UniProt P53350) (assay: qHTS for Inhibitors of PLK1-PDB (polo-like kinase 1 - polo-box domain): Primary Screen). Conditions: Plk1 PBD binding of FITC phosphopeptide, fluorescence polarization.
% is set by controls: 0 for no effect and ±100 for the full control effect; potency is the fitted concentration of half-maximal effect.
Note: nearly all actives have a fitted effect of over 65% in size.
Throughout, for max response, negative = inhibition: series mostly up to about 57 µM.

SMILES	max response, negative = inhibition	Potency
Cc1cc(C)cc(NC(=S)NCC2CCCO2)c1 (centres undefined)	inactive: -4.11%	–
CCCCOc1ccc(C(=O)N(Cc2ccco2)C2CCS(=O)(=O)C2)cc1 (centres undefined)	inconclusive: -32% [inhibitor]	–
Cc1csc(N)n1	inactive: -23.6%	–
COc1ccc(C(=O)COC(=O)CN2CC(=O)Oc3ccccc32)cc1Br	–	inconclusive: 26.7 µM [inhibitor, single point]
COc1ccccc1-c1csc(C(O)(c2ccccc2)C(F)(F)F)n1 (centres undefined)	inactive: -8.86%	–
Cn1c(=S)n(CCC(=O)O)c2ccccc21	–	inconclusive: 33.6 µM [inhibitor, partial curve]
CCN(CC)c1nc(C)c(C(=S)Nc2cc([N+](=O)[O-])ccc2Cl)s1	–	inconclusive: 18.9 µM [inhibitor, partial curve]
S=c1[nH]nc(-c2cc(-c3ccccc3)n[nH]2)n1/N=C/C(Br)=C/c1ccccc1	–	inconclusive: 11.9 µM [inhibitor, partial curve]
COc1cccc(/C=N/NC(=O)CCn2nnc3ccccc32)c1	–	active: 7.52 µM
CCOc1cccc2sc(N(CCN(C)C)C(=O)c3cc4ccccc4cc3OC)nc12	inactive: -14.4%	–
COc1cccc(/C=N/NC(N)=S)c1OCc1cccc(Cl)c1	inactive: -2.83%	–
O=C(Nc1csc([N+](=O)[O-])c1)Nc1ccccc1Cl	inactive: -4.41%	–
CN(CC(=O)Nc1cccc(F)c1)C(=O)c1cccnc1Sc1ccccc1	inactive: -5.05%	–
COC(=O)C1=C(C)N(Cc2ccccc2)C(=NCc2ccco2)N[C@H]1c1cccc(F)c1	inactive: 3.6%	–
COc1ccc(NC(=O)CSc2nnc(Cc3cccn3C)n2-c2ccc(F)cc2)cc1	–	inconclusive: 37.7 µM [inhibitor, single point]
COCCCNC(=O)c1ccc2c3c(onc13)-c1ccccc1C2=O	–	active: 5.32 µM
O=C(CCS(=O)(=O)c1ccccc1)Nc1nc2cc3c(cc2s1)OCCO3	inactive: -18.3%	–
N#C/C(=N\Nc1cccc(C(F)(F)F)c1)C(=O)c1ccsc1	–	inconclusive: 29.9 µM [inhibitor, single point]
CC1=C(C(=O)N2CCOCC2)C(c2ccc(OC(F)F)cc2)NC(=S)N1c1ccccc1 (centres undefined)	–	inconclusive: 33.6 µM [inhibitor, single point]
C#CCOCCOCCOCCNc1nc(N2CCN(C(=O)[C@H](CC(N)=O)n3cc(C(N)[C@H](C)CC)nn3)CC2)nc(N2CCN(C(=O)[C@H](CC(N)=O)n3cc(C(N)[C@@H](C)CC)nn3)CC2)n1 (some centres undefined)	inactive: -4.02%	–
COc1ccc2c(c1)CC/C(=C\c1ccc(OC)c(Cn3cccn3)c1)C2=O	inactive: -6.61%	–
Cc1noc2ncnc(Sc3ccc(Br)cc3)c12	–	inconclusive: 5.97 µM [inhibitor, partial curve]
COc1ccccc1CCNC(=O)Cn1ccc2cc(S(=O)(=O)N3CCCC3)ccc21	–	inconclusive: 23.8 µM [inhibitor, partial curve]
Clc1ccc(-c2csc(N/N=C/c3cccnc3)n2)c(Cl)c1	inactive: -6.58%	–
CCc1ccc(-c2nc(CS(=O)CC(=O)NCCc3ccccc3)c(C)o2)cc1 (centres undefined)	–	inconclusive: 29.9 µM [inhibitor, partial curve]

Of the compounds above, 2 contain a furan ring, fused or not.
SMILES	max response, negative = inhibition	Potency
CCCCOc1ccc(C(=O)N(Cc2ccco2)C2CCS(=O)(=O)C2)cc1 (centres undefined)	inconclusive: -32% [inhibitor]	–
COC(=O)C1=C(C)N(Cc2ccccc2)C(=NCc2ccco2)N[C@H]1c1cccc(F)c1	inactive: 3.6%	–

Further results:

SMILES	max response, negative = inhibition	Potency
c1ccc(-c2nnc(-c3ccccn3)nn2)nc1	–	inconclusive: 33.6 µM [inhibitor, single point]
CSCCOC(=O)C1=C(C)Nc2ccc(C)cc2S1	–	active: 18.9 µM
CC1(C)Cc2cccc(OCC(=O)NC3CC3)c2O1	–	inconclusive: 29.9 µM [inhibitor, single point]
O=C(O)CCSc1ccccn1	–	active: 13.4 µM
CCCOc1ccc(C(=O)NC(=S)N2CCN(c3ncc4c(=O)c(C(=O)O)cn(CC)c4n3)CC2)cc1	–	inconclusive: 75.2 µM [inhibitor, partial curve]
CS(=O)(=O)C1=NN2C(=N)/C(=C\c3ccc(OC(=O)c4ccco4)cc3)C(=O)N=C2S1	–	inconclusive: 3.77 µM [inhibitor, single point]
CCOC(=O)c1ccc(S(=O)(=O)Nc2cc(C(=O)O)ccc2Cl)cc1	–	inconclusive: 29.9 µM [inhibitor, partial curve]
c1csc(-c2nn3c(Cn4cnc5ccccc54)nnc3s2)c1	–	active: 21.2 µM
Nc1nc2c(s1)CCc1c-2cnn1-c1ccccc1	–	active: 2.67 µM
O=[N+]([O-])c1ccc(NNC(=S)Nc2ccccc2)cc1	–	inconclusive: 3.98 µM [inhibitor, partial curve]
Cc1cccc(NC(=O)CN2C(=O)N/C(=C/c3ccc(-c4cccc(C(=O)O)c4C)o3)C2=O)c1	inactive: -21.8%	–
CCOC(=O)N1CCN(c2c(NCCCOC(C)C)c(=O)c2=O)CC1	–	inconclusive: 29.9 µM [inhibitor, single point]
CSC1=NC(C)(C)C=C(/C=C/c2ccc(Cl)cc2)N1	–	inconclusive: 21.2 µM [inhibitor, partial curve]
COc1ccccc1C(=O)NCCNC(=O)c1ccco1	–	active: 26.7 µM
CC(C)NC(=O)C1(C)CN(S(C)(=O)=O)CC(=O)N1CCc1ccccc1F (centres undefined)	inactive: -7.61%	–
O=C(NCc1cccc(Cl)c1)C1CCC(=O)N(CCCN2CCOCC2)C1 (centres undefined)	inconclusive: -6.05% [inhibitor]	–
CCCNC(=O)Nc1ccc(C(F)(F)F)cc1	–	inconclusive: 26.7 µM [inhibitor, single point]
CCc1nc(SCc2cccnc2)[nH]c(=O)c1C	–	inconclusive: 26.7 µM [inhibitor, single point]
COc1ccc(-n2ncc3c2CC(C)(C)CC3NC(=O)c2c(C)cc(=O)oc2C)cc1 (centres undefined)	–	active: 23.8 µM
CC(C)CN1C=C2C(=O)C(C)(OC(=O)C3CCCC3)C(=O)C=C2C=C1c1ccsc1 (centres undefined)	inconclusive: -35.9% [inhibitor]	–
O=C(Cc1ccccn1)c1ccc(O)cc1O	–	inconclusive: 23.8 µM [inhibitor, single point]
CSCC(C)N1CCC(n2nccc2NC(=O)CCCc2ccccc2)CC1 (centres undefined)	–	inconclusive: 18.9 µM [inhibitor, partial curve]
OC(CNCc1ccccc1)(c1ccccc1)c1ccccc1	–	inconclusive: 16.8 µM [inhibitor, partial curve]
O=C(Nc1ccc2nccnc2c1)c1ccco1	–	inconclusive: 26.7 µM [inhibitor, partial curve]
CCN1/C(=C/c2ccc3cc(C)ccc3[n+]2CC)Sc2ccc3sccc3c21	–	inconclusive: 16.8 µM [inhibitor, partial curve]

SMILES	max response, negative = inhibition	Potency
COc1ccc(C(=O)/C=C/C(=O)N(CC(=O)NCCC(C)C)Cc2cccs2)c(O)c1	–	active: 33.6 µM
CCc1ccc(N2Cc3ccccc3C2)cc1	–	inconclusive: 33.6 µM [inhibitor, partial curve]
CCOc1ccc(N2C(=O)c3cccnc3C2Nc2ccc(OC)cc2)cc1 (centres undefined)	inactive: -14.8%	–
CC(=O)c1cccc(NC(=S)NC(=O)c2ccccc2)c1	inactive: -1.66%	–
Cc1ccc(-c2c(C(=O)Nc3ccccc3C)c(C)[nH]c(=S)c2C#N)o1	–	inconclusive: 29.9 µM [inhibitor, partial curve]
CC1(C(=O)NNC(=O)c2ccc(=O)oc2)CC1Br (centres undefined)	–	inconclusive: 18.9 µM [inhibitor, partial curve]
CCOC(=O)c1c(N)sc(C(=O)OC)c1C	–	active: 29.9 µM
COc1cc(CNC2CCCCC2OC)cc(OC)c1OC (centres undefined)	inactive: -7.29%	–
C/C(=N\Nc1ccc(Cl)c(C(=O)O)c1)c1ccc(N2CCOCC2)cc1	inconclusive: -33.2% [inhibitor]	–
O=C1NC[C@@H](CCCCN2C[C@H](Cc3ccc(O)cc3)N(CCC3CCCCC3)C(=O)C2=O)N(CC2CCCCC2)C1=O	inactive: -4.08%	–
COc1cccc(/C=C2\SC(=S)N(NS(=O)(=O)c3ccccc3)C2=O)c1OC	–	inconclusive: 33.6 µM [inhibitor, partial curve]
Cc1ccc(C)c(S(=O)(=O)N2CCC3(CC2)OCCO3)c1	inactive: -6.38%	–
O=C(Cn1nc(-c2ccc(Cl)cc2)c2ccccc2c1=O)NCC1CCCO1 (centres undefined)	–	active: 13.4 µM
CCn1c(SC(C)C(=O)O)nc2sc3c(c2c1=O)CCC3 (centres undefined)	–	inconclusive: 29.9 µM [inhibitor, partial curve]
Cc1nccn1CC(O)COC1CCCCC1 (centres undefined)	inactive: -7.85%	–
N#Cc1ccccc1NC(=O)CSc1n[nH]c(-c2ccco2)n1	–	inconclusive: 26.7 µM [inhibitor, single point]
CCCc1ccc2c(C(F)(F)F)cc(C(F)(F)F)cc2n1	inactive: -2.2%	–
Cc1ccnc(SCc2cc(=O)c(OC(=O)c3ccc(Cl)c([N+](=O)[O-])c3)co2)n1	–	inconclusive: 29.9 µM [inhibitor, partial curve]
CC(C)C(NC(=O)OCc1ccccc1)C(=O)OCC(=O)NC1CC1 (centres undefined)	–	inconclusive: 26.7 µM [inhibitor, single point]
CC(=O)c1c(C)[nH]c(C(=O)NNC(=O)c2ccc(C)cc2)c1C	inactive: 0.294%	–
NC(=O)NC(=O)CC1S/C(=N/N=C2\CSC(=O)N2)NC1=O (centres undefined)	inactive: -0.368%	–
COc1cc(C(=O)NNC(=O)c2cc(C)[nH]n2)cc(OC)c1OC	inactive: -20.8%	–
Nc1ccc2c(c1)C(=O)c1ccc(N)cc1-2	–	inconclusive: 23.8 µM [inhibitor, partial curve]
CCOC(=O)c1c(NC(=O)C2=C(C)NC(=S)NC2c2ccc(C)cc2)sc(C)c1C (centres undefined)	–	inconclusive: 26.7 µM [inhibitor, single point]

Nothing new here: an excerpt of the list.
SMILES	max response, negative = inhibition	Potency
C/C(=N\Nc1ccc(Cl)c(C(=O)O)c1)c1ccc(N2CCOCC2)cc1	inconclusive: -33.2% [inhibitor]	–
O=C1NC[C@@H](CCCCN2C[C@H](Cc3ccc(O)cc3)N(CCC3CCCCC3)C(=O)C2=O)N(CC2CCCCC2)C1=O	inactive: -4.08%	–
COc1cccc(/C=C2\SC(=S)N(NS(=O)(=O)c3ccccc3)C2=O)c1OC	–	inconclusive: 33.6 µM [inhibitor, partial curve]
